Record: PubChem BioAssay AID1508597 (Cure First, 2020)
Assay: 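Knock-downs altering ovarian cancer cell survival with or without PARP inhibitor rucaparib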 (primary screen). Cell system: human ovarian carcinoma lines grown from tumours: OCI-P5x (papillary serous) and OCI-C5x (clear cell). Reagents: siRNA pool against human genes, 1.25 pmol siRNA per well. Time to read-out: 72 h or 96 h, depending on the cell culture. Challenge: rucaparib 20 µM (about IC30) or vehicle, present until read-out. Rucaparib or vehicle: Vehicle. Cell line: OCI-C5x (clear cell). Measured: 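ATP luminescence measured at 72 or 96 h according to the culture, then normalised and expressed as percent viability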. Direction: viability, normalised: higher = more viable cells remaining. Rule for the call: 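a well counts as a hit if its normalised viability is under 80 percent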. Calls: active = viability under 80%; inactive = viability 80% or more.
Shown is an unselected part of the about 2,100 reagents, in one setting of the screen. 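Calls flag viability under 80% in either arm, not effects specific to rucaparib; the reference for percent is not stated.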 A reagent listed more than once was tested more than once; the source does not tell the runs apart. Not stated in the record: the 100% reference.

gene,technical replicate,"viability, normalised (%)",Outcome
CHMP1B (charged multivesicular body protein 1B),1,22.5,active
CHMP1B (charged multivesicular body protein 1B),2,47.2,active
CHMP1B (charged multivesicular body protein 1B),3,55.2,active
MSH4 (mutS homolog 4),1,44.1,active
MSH4 (mutS homolog 4),2,58.1,active
MSH4 (mutS homolog 4),3,57.8,active
PIP5K1A (phosphatidylinositol-4-phosphate 5-kinase type 1 alpha),1,65.6,active
PIP5K1A (phosphatidylinositol-4-phosphate 5-kinase type 1 alpha),2,71.8,active
PIP5K1A (phosphatidylinositol-4-phosphate 5-kinase type 1 alpha),3,71.2,active
STK3 (serine/threonine kinase 3),1,42.1,active
STK3 (serine/threonine kinase 3),2,52.2,active
STK3 (serine/threonine kinase 3),3,52.8,active
PHF20 (PHD finger protein 20),1,30.7,active
PHF20 (PHD finger protein 20),2,34.7,active
PHF20 (PHD finger protein 20),3,32.7,active
RPS6KA1 (ribosomal protein S6 kinase A1),1,60.8,active
RPS6KA1 (ribosomal protein S6 kinase A1),2,54.1,active
RPS6KA1 (ribosomal protein S6 kinase A1),3,49.3,active
BRPF3 (bromodomain and PHD finger containing 3),1,31.5,active
BRPF3 (bromodomain and PHD finger containing 3),2,34.5,active
BRPF3 (bromodomain and PHD finger containing 3),3,45.7,active
SPEG (striated muscle enriched protein kinase),1,44.2,active
SPEG (striated muscle enriched protein kinase),1,60.7,active
SPEG (striated muscle enriched protein kinase),2,48.3,active
SPEG (striated muscle enriched protein kinase),2,57.5,active
SPEG (striated muscle enriched protein kinase),3,54.2,active
SPEG (striated muscle enriched protein kinase),3,40.8,active
DDX28 (DEAD-box helicase 28),1,31.9,active
DDX28 (DEAD-box helicase 28),2,45,active
DDX28 (DEAD-box helicase 28),3,49.9,active
CENPO (centromere protein O),1,75.4,active
CENPO (centromere protein O),2,69.9,active
CENPO (centromere protein O),3,72.5,active

Part of the list above, reformatted.
gene	technical replicate	viability, normalised (%)	Outcome
PHF20 (PHD finger protein 20)	2	34.7	active
PHF20 (PHD finger protein 20)	3	32.7	active
RPS6KA1 (ribosomal protein S6 kinase A1)	1	60.8	active
RPS6KA1 (ribosomal protein S6 kinase A1)	2	54.1	active
RPS6KA1 (ribosomal protein S6 kinase A1)	3	49.3	active
BRPF3 (bromodomain and PHD finger containing 3)	1	31.5	active
BRPF3 (bromodomain and PHD finger containing 3)	2	34.5	active
BRPF3 (bromodomain and PHD finger containing 3)	3	45.7	active
SPEG (striated muscle enriched protein kinase)	1	44.2	active
SPEG (striated muscle enriched protein kinase)	1	60.7	active

Additional results follow.
gene,technical replicate,"viability, normalised (%)",Outcome
POU5F1 (POU class 5 homeobox 1),1,38.8,active
POU5F1 (POU class 5 homeobox 1),2,30.7,active
POU5F1 (POU class 5 homeobox 1),3,41.4,active
PIWIL2 (piwi like RNA-mediated gene silencing 2),1,35.1,active
PIWIL2 (piwi like RNA-mediated gene silencing 2),2,45.5,active
PIWIL2 (piwi like RNA-mediated gene silencing 2),3,54.3,active
EEF1E1 (eukaryotic translation elongation factor 1 epsilon 1),1,49.7,active
EEF1E1 (eukaryotic translation elongation factor 1 epsilon 1),2,85.3,inactive
EEF1E1 (eukaryotic translation elongation factor 1 epsilon 1),3,40.9,active
"POLE2 (DNA polymerase epsilon 2, accessory subunit)",1,64.8,active
"POLE2 (DNA polymerase epsilon 2, accessory subunit)",2,32.2,active
"POLE2 (DNA polymerase epsilon 2, accessory subunit)",3,29.3,active
TET2 (tet methylcytosine dioxygenase 2),1,42,active
TET2 (tet methylcytosine dioxygenase 2),2,41.9,active
TET2 (tet methylcytosine dioxygenase 2),3,46.3,active
DDX49 (DEAD-box helicase 49),1,37.4,active
DDX49 (DEAD-box helicase 49),2,48.2,active
DDX49 (DEAD-box helicase 49),3,50.3,active
P2RY2 (purinergic receptor P2Y2),1,51.9,active
P2RY2 (purinergic receptor P2Y2),2,36,active
P2RY2 (purinergic receptor P2Y2),3,39.6,active
CCNH (cyclin H),1,65.1,active
CCNH (cyclin H),2,39.4,active
CCNH (cyclin H),3,37.2,active
PYGO2 (pygopus family PHD finger 2),1,57.1,active
PYGO2 (pygopus family PHD finger 2),2,58.8,active
PYGO2 (pygopus family PHD finger 2),3,57,active
AK1 (adenylate kinase 1),1,46.2,active
AK1 (adenylate kinase 1),2,57.2,active
AK1 (adenylate kinase 1),3,53.3,active
GK (glycerol kinase),1,72.7,active
GK (glycerol kinase),2,56.3,active
GK (glycerol kinase),3,64.2,active
EPHA10 (EPH receptor A10),1,55.1,active
EPHA10 (EPH receptor A10),2,53.6,active
EPHA10 (EPH receptor A10),3,40,active
RB1 (RB transcriptional corepressor 1),1,38.7,active
RB1 (RB transcriptional corepressor 1),2,29.9,active
RB1 (RB transcriptional corepressor 1),3,28.6,active
PHF7 (PHD finger protein 7),1,33.9,active
PHF7 (PHD finger protein 7),2,38.4,active
PHF7 (PHD finger protein 7),3,33.1,active
